The values that follow come from publication PMC8699236.

By UniProt entry, the sequences of proteins in these tests, tags left out. Where a name states a change or a piece, a line headed by the entry shows the natural chain unless it says otherwise.
UniProt Q96RU7: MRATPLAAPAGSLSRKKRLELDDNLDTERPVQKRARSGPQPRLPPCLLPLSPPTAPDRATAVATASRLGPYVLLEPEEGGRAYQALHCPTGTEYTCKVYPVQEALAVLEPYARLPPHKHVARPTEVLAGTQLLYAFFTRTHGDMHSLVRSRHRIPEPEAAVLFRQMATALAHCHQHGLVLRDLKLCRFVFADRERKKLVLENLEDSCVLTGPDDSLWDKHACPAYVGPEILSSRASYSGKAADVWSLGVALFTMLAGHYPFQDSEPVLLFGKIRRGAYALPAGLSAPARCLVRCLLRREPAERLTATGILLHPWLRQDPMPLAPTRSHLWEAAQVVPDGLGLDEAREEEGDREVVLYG
UniProt Q5JSL3: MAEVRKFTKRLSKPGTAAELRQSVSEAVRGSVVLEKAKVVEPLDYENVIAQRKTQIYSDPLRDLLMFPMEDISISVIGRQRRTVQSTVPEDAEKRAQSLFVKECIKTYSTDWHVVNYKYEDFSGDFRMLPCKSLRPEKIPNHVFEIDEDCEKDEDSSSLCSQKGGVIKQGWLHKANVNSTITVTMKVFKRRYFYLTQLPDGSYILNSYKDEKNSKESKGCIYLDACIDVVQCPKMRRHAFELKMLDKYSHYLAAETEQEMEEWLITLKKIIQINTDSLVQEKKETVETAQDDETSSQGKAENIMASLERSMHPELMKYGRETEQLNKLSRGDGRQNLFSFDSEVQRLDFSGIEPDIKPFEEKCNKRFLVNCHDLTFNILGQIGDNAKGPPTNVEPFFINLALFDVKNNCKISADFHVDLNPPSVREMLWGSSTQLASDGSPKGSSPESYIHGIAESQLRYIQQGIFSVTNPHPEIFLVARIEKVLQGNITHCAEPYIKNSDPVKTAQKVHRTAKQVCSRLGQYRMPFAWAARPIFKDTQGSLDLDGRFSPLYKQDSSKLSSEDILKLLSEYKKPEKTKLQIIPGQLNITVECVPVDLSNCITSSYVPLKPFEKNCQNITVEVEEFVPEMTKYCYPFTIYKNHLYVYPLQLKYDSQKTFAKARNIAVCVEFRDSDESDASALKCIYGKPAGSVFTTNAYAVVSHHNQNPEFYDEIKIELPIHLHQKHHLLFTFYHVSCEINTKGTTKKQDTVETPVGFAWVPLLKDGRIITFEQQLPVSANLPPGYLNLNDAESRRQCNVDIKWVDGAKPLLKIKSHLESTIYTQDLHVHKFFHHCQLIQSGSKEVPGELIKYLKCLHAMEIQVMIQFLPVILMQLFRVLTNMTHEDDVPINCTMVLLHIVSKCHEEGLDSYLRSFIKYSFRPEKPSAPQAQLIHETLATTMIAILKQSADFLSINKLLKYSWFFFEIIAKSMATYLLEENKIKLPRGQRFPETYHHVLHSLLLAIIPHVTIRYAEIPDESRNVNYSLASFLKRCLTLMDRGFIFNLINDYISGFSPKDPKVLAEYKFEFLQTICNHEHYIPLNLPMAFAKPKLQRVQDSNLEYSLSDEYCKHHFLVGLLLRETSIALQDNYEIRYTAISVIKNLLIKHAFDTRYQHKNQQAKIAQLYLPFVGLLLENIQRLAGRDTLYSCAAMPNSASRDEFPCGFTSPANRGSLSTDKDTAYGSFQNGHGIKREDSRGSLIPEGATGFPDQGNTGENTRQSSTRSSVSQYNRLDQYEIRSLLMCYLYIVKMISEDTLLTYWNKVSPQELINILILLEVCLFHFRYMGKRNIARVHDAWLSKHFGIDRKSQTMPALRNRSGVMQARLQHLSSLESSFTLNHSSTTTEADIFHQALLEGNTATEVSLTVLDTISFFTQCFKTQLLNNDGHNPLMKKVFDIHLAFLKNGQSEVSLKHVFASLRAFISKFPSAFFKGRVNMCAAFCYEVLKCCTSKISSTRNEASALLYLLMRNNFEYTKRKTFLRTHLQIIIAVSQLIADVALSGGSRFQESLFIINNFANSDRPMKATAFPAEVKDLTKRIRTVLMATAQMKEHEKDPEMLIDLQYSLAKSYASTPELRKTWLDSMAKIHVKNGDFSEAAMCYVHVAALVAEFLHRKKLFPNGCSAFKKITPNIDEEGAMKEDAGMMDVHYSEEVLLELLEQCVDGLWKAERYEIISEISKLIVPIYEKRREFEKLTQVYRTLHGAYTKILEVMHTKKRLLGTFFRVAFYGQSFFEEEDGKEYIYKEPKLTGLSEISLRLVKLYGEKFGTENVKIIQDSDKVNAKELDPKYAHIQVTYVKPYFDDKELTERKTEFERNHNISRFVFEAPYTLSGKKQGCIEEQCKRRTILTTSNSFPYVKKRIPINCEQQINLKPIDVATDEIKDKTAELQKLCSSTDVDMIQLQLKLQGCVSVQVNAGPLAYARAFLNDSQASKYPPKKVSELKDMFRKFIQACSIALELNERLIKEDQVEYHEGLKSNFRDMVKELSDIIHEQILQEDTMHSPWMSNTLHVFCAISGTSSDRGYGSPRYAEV
UniProt Q5TDH0: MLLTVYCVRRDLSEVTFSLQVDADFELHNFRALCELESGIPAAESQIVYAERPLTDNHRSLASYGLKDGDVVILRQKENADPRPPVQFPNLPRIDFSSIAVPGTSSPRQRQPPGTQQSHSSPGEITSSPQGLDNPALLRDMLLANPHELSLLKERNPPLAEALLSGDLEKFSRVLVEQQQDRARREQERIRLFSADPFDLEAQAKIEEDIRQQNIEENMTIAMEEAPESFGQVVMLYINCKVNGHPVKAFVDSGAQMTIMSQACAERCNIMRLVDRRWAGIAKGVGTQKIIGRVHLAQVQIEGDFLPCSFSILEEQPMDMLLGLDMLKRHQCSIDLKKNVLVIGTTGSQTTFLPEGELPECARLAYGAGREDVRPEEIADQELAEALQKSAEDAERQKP
UniProt Q9Y5T5: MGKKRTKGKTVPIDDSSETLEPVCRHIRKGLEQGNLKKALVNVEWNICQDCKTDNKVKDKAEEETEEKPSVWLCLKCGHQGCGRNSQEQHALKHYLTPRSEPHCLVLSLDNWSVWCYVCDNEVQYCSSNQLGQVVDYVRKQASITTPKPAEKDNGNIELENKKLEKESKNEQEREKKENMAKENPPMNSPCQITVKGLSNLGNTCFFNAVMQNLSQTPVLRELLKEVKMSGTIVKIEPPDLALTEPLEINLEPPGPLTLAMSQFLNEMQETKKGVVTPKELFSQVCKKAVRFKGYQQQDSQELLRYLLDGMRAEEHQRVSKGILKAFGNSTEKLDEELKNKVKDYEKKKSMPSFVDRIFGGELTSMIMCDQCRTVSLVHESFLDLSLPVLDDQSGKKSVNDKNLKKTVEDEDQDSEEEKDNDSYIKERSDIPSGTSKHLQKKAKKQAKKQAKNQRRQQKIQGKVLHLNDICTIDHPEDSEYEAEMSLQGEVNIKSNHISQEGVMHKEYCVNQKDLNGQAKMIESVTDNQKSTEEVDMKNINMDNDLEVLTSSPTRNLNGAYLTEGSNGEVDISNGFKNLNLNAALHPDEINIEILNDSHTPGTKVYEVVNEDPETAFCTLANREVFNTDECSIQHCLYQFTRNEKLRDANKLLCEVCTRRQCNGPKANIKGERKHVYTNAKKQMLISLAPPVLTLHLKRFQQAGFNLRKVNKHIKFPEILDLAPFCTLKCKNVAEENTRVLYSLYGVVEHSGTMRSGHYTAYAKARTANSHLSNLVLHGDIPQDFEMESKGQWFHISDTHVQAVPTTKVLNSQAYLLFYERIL
UniProt Q8IWV8: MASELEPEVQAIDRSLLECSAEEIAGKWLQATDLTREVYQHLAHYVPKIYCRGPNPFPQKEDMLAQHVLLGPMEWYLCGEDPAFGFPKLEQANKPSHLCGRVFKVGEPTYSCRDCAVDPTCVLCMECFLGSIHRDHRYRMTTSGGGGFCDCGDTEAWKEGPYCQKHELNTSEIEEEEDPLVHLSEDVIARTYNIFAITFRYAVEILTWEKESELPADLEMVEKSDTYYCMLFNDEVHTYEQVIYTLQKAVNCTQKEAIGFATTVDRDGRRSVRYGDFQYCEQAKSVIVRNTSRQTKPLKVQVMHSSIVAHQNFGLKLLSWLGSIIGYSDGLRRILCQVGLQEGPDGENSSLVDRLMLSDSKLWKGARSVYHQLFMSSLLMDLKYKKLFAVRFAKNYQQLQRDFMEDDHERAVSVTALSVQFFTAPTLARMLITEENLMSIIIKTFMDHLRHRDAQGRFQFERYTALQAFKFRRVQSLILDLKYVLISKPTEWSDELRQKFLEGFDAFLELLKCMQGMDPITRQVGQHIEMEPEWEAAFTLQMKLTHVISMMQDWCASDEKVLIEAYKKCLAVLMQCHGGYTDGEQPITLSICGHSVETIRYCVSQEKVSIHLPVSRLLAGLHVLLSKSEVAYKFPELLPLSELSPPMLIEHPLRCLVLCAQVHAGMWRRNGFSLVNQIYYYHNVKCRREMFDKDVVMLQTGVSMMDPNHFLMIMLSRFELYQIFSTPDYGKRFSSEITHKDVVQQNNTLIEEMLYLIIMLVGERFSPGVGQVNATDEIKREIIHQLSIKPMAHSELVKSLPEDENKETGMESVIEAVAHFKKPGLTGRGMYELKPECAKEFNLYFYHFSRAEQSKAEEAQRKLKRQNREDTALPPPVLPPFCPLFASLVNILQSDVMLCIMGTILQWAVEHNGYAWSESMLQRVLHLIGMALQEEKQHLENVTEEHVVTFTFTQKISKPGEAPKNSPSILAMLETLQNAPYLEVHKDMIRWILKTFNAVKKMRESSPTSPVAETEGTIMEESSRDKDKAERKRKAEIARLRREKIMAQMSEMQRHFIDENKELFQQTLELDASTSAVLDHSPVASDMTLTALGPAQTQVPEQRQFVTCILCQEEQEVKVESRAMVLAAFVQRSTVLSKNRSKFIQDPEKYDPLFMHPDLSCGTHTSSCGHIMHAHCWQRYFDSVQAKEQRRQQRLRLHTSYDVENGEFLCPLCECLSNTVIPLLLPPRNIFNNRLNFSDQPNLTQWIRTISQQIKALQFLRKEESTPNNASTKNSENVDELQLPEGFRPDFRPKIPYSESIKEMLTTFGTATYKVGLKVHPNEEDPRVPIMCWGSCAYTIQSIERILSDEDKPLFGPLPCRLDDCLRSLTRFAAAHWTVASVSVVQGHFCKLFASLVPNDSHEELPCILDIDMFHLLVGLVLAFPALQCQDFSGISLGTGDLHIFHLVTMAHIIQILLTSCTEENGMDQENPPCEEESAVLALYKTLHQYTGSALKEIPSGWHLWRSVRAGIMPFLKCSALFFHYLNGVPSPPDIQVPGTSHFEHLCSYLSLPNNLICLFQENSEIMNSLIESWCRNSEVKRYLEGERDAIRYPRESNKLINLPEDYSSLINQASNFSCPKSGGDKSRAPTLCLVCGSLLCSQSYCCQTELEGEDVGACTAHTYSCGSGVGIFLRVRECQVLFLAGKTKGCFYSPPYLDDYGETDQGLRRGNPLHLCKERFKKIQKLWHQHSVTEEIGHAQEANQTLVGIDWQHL

Results are given in words; binding and its absence hold for the method and conditions named. Binding seen in cells or lysates may run through a third protein. These calls come from enrichment with a bait or labelling near it, and not all partners need be listed.

Assay [1] has as its target TRIB3-ΔN-terminal (human) (UniProt Q96RU7). Put plainly: affinity purification with mass spectrometry; GFP-fusion bait from lysate of transfected HEK293T cells on GFP-Trap beads, 2 h at 4 °C; lysis buffer 50 mM Tris pH 8.0, 1 mM EDTA, 0.1% NP40, 250 mM NaCl, 10% glycerol; on-bead digestion, LC-MS, label-free, against GFP control (or mutant against mutant or wild type).
The target in assay [2] is TRIB3-ΔC-terminal (human) (UniProt Q96RU7). Described as above.

For the molecule “Dedicator of Cytokinases 11 (from UniProt Q5JSL3 1-2073)”, the binding entry in assay [1] is “binds”.

For “DNA Damage 1 Homolog 2 (from UniProt Q5TDH0 1-399)”, the binding result in assay [1] is recorded as “binds”.

With “Ubiquitin Specific Peptidase 16 (from UniProt Q9Y5T5 1-823)”, the binding entry in assay [1] is on record as “binds”.

In the case of “Ubiquitin Protein Ligase E3 Component N-Recognin 2 (from UniProt Q8IWV8 1-1755)”, in assay [1], the binding result is “binds”.

B1: Nuclear Factor of Activated T Cells 3 (protein, UniProt Q12968 1-1075)
chain: MTTANCGAHDELDFKLVFGEDGAPAPPPPGSRPADLEPDDCASIYIFNVDPPPSTLTTPLCLPHHGLPSHSSVLSPSFQLQSHKNYEGTCEIPESKYSPLGGPKPFECPSIQITSISPNCHQELDAHEDDLQINDPEREFLERPSRDHLYLPLEPSYRESSLSPSPASSISSRSWFSDASSCESLSHIYDDVDSELNEAAARFTLGSPLTSPGGSPGGCPGEETWHQQYGLGHSLSPRQSPCHSPRSSVTDENWLSPRPASGPSSRPTSPCGKRRHSSAEVCYAGSLSPHHSPVPSPGHSPRGSVTEDTWLNASVHGGSGLGPAVFPFQYCVETDIPLKTRKTSEDQAAILPGKLELCSDDQGSLSPARETSIDDGLGSQYPLKKDSCGDQFLSVPSPFTWSKPKPGHTPIFRTSSLPPLDWPLPAHFGQCELKIEVQPKTHHRAHYETEGSRGAVKASTGGHPVVKLLGYNEKPINLQMFIGTADDRYLRPHAFYQVHRITGKTVATASQEIIIASTKVLEIPLLPENNMSASIDCAGILKLRNSDIELRKGETDIGRKNTRVRLVFRVHIPQPSGKVLSLQIASIPVECSQRSAQELPHIEKYSINSCSVNGGHEMVVTGSNFLPESKIIFLEKGQDGRPQWEVEGKIIREKCQGAHIVLEVPPYHNPAVTAAVQVHFYLCNGKRKKSQSQRFTYTPVLMKQEHREEIDLSSVPSLPVPHPAQTQRPSSDSGCSHDSVLSGQRSLICSIPQTYASMVTSSHLPQLQCRDESVSKEQHMIPSPIVHQPFQVTPTPPVGSSYQPMQTNVVYNGPTCLPINAASSQEFDSVLFQQDATLSGLVNLGCQPLSSIPFHSSNSGSTGHLLAHTPHSVHTLPHLQSMGYHCSNTGQRSLSSPVADQITGQPSSQLQPITYGPSHSGSATTASPAASHPLASSPLSGPPSPQLQPMPYQSPSSGTASSPSPATRMHSGQHSTQAQSTGQGGLSAPSSLICHSLCDPASFPPDGATVSIKPEPEDREPNFATIGLQDITLDDVNEIIGRDMSQISVSQGAGVSRQAPLPSPESLDLGRSDGL
Consider B1, for which, in assay [2], the binding result is recorded as “binds”.

B2: Gen1 Holliday Junction 5′ Flap Endonuclease (protein, UniProt Q17RS7 1-908)
chain: MGVNDLWQILEPVKQHIPLRNLGGKTIAVDLSLWVCEAQTVKKMMGSVMKPHLRNLFFRISYLTQMDVKLVFVMEGEPPKLKADVISKRNQSRYGSSGKSWSQKTGRSHFKSVLRECLHMLECLGIPWVQAAGEAEAMCAYLNAGGHVDGCLTNDGDTFLYGAQTVYRNFTMNTKDPHVDCYTMSSIKSKLGLDRDALVGLAILLGCDYLPKGVPGVGKEQALKLIQILKGQSLLQRFNRWNETSCNSSPQLLVTKKLAHCSVCSHPGSPKDHERNGCRLCKSDKYCEPHDYEYCCPCEWHRTEHDRQLSEVENNIKKKACCCEGFPFHEVIQEFLLNKDKLVKVIRYQRPDLLLFQRFTLEKMEWPNHYACEKLLVLLTHYDMIERKLGSRNSNQLQPIRIVKTRIRNGVHCFEIEWEKPEHYAMEDKQHGEFALLTIEEESLFEAAYPEIVAVYQKQKLEIKGKKQKRIKPKENNLPEPDEVMSFQSHMTLKPTCEIFHKQNSKLNSGISPDPTLPQESISASLNSLLLPKNTPCLNAQEQFMSSLRPLAIQQIKAVSKSLISESSQPNTSSHNISVIADLHLSTIDWEGTSFSNSPAIQRNTFSHDLKSEVESELSAIPDGFENIPEQLSCESERYTANIKKVLDEDSDGISPEEHLLSGITDLCLQDLPLKERIFTKLSYPQDNLQPDVNLKTLSILSVKESCIANSGSDCTSHLSKDLPGIPLQNESRDSKILKGDQLLQEDYKVNTSVPYSVSNTVVKTCNVRPPNTALDHSRKVDMQTTRKILMKKSVCLDRHSSDEQSAPVFGKAKYTTQRMKHSSQKHNSSHFKESGHNKLSSPKIHIKETEQCVRSYETAENEESCFPDSTKSSLSSLQCHKKENNSGTCLDSPLPLRQRLKLRFQST
For the molecule B2, the binding result in assay [2] is “binds”.

B3: Poly(A)-Specific Ribonuclease (protein, UniProt O95453 1-639)
chain: MEIIRSNFKSNLHKVYQAIEEADFFAIDGEFSGISDGPSVSALTNGFDTPEERYQKLKKHSMDFLLFQFGLCTFKYDYTDSKYITKSFNFYVFPKPFNRSSPDVKFVCQSSSIDFLASQGFDFNKVFRNGIPYLNQEEERQLREQYDEKRSQANGAGALSYVSPNTSKCPVTIPEDQKKFIDQVVEKIEDLLQSEENKNLDLEPCTGFQRKLIYQTLSWKYPKGIHVETLETEKKERYIVISKVDEEERKRREQQKHAKEQEELNDAVGFSRVIHAIANSGKLVIGHNMLLDVMHTVHQFYCPLPADLSEFKEMTTCVFPRLLDTKLMASTQPFKDIINNTSLAELEKRLKETPFNPPKVESAEGFPSYDTASEQLHEAGYDAYITGLCFISMANYLGSFLSPPKIHVSARSKLIEPFFNKLFLMRVMDIPYLNLEGPDLQPKRDHVLHVTFPKEWKTSDLYQLFSAFGNIQISWIDDTSAFVSLSQPEQVKIAVNTSKYAESYRIQTYAEYMGRKQEEKQIKRKWTEDSWKEADSKRLNPQCIPYTLQNHYYRNNSFTAPSTVGKRNLSPSQEEAGLEDGVSGEISDTELEQTDSCAEPLSEGRKKAKKLKRMKKELSPAGSISKNSPATLFEVPDTW
As to B3, the binding result in assay [2] is “binds”.

B4: Protein kinase D1 (protein, UniProt Q15139 1-912)
chain: MSAPPVLRPPSPLLPVAAAAAAAAAALVPGSGPGPAPFLAPVAAPVGGISFHLQIGLSREPVLLLQDSSGDYSLAHVREMACSIVDQKFPECGFYGMYDKILLFRHDPTSENILQLVKAASDIQEGDLIEVVLSASATFEDFQIRPHALFVHSYRAPAFCDHCGEMLWGLVRQGLKCEGCGLNYHKRCAFKIPNNCSGVRRRRLSNVSLTGVSTIRTSSAELSTSAPDEPLLQKSPSESFIGREKRSNSQSYIGRPIHLDKILMSKVKVPHTFVIHSYTRPTVCQYCKKLLKGLFRQGLQCKDCRFNCHKRCAPKVPNNCLGEVTINGDLLSPGAESDVVMEEGSDDNDSERNSGLMDDMEEAMVQDAEMAMAECQNDSGEMQDPDPDHEDANRTISPSTSNNIPLMRVVQSVKHTKRKSSTVMKEGWMVHYTSKDTLRKRHYWRLDSKCITLFQNDTGSRYYKEIPLSEILSLEPVKTSALIPNGANPHCFEITTANVVYYVGENVVNPSSPSPNNSVLTSGVGADVARMWEIAIQHALMPVIPKGSSVGTGTNLHRDISVSISVSNCQIQENVDISTVYQIFPDEVLGSGQFGIVYGGKHRKTGRDVAIKIIDKLRFPTKQESQLRNEVAILQNLHHPGVVNLECMFETPERVFVVMEKLHGDMLEMILSSEKGRLPEHITKFLITQILVALRHLHFKNIVHCDLKPENVLLASADPFPQVKLCDFGFARIIGEKSFRRSVVGTPAYLAPEVLRNKGYNRSLDMWSVGVIIYVSLSGTFPFNEDEDIHDQIQNAAFMYPPNPWKEISHEAIDLINNLLQVKMRKRYSVDKTLSHPWLQDYQTWLDLRELECKIGERYITHESDDLRWEKYAGEQGLQYPTHLINPSASHSDTPETEETEMKALGERVSIL
Consider B4, for which the binding entry in assay [2] is recorded as “binds”.

B5: Nucleus Accumbens Associated 1 (protein, UniProt Q96RE7 1-527)
chain: MAQTLQMEIPNFGNSILECLNEQRLQGLYCDVSVVVKGHAFKAHRAVLAASSSYFRDLFNNSRSAVVELPAAVQPQSFQQILSFCYTGRLSMNVGDQFLLMYTAGFLQIQEIMEKGTEFFLKVSSPSCDSQGLHAEEAPSSEPQSPVAQTSGWPACSTPLPLVSRVKTEQQESDSVQCMPVAKRLWDSGQKEAGGGGNGSRKMAKFSTPDLAANRPHQPPPPQQAPVVAAAQPAVAAGAGQPAGGVAAAGGVVSGPSTSERTSPGTSSAYTSDSPGSYHNEEDEEEDGGEEGMDEQYRQICNMYTMYSMMNVGQTAEKVEALPEQVAPESRNRIRVRQDLASLPAELINQIGNRCHPKLYDEGDPSEKLELVTGTNVYITRAQLMNCHVSAGTRHKVLLRRLLASFFDRNTLANSCGTGIRSSTNDPRRKPLDSRVLHAVKYYCQNFAPNFKESEMNAIAADMCTNARRVVRKSWMPKVKVLKAEDDAYTTFISETGKIEPDMMGVEHGFETASHEGEAGPSAEALQ
Consider B5, for which, in assay [2], the binding result is given as “binds”.
